The values that follow come from patent US9422340B2, “Macrocyclic compounds useful as inhibitors of histone deacetylases” (The Regents of the University of Colorado, A Body Corporate, priority 2010, dated 2016).

In experiment [1] the test system is HCT116 cells. Description: DNA microarray gene expression profiles. The format is cell-based, human. The following applies: SAHA (200 μM), Largazole (20 nM), Example 1 (20 nM). From the text:
FIGS. 9A to C present DNA microarray data showing that SAHA, Largazole and its selected analog example 1 cause distinct changes in gene expression profiles in the HCT 116 cancer cell line. FIG. 9A illustrates hierarchical clustering and heatmaps of changes in gene expression profiles in the HCT116 cells with indicated treatment. FIGS. 9B and 9C illustrate Venn diagrams showing unique and shared gene sets whose expression levels changed by more than 2 fold upon exposure to the indicated treatment at 6 hr (FIG. 9B) and 24 hr (FIG. 9C).
Expression values files for each sample were generated using the Robust Multichip Average (RMA) algorithm. Differential expression was determined using the R software package limma to generate linear models and empirical Bayesian statistics. Genes were considered differentially expressed if the P value, adjusted for multiple testing using the Benjamini and Hochberg method, was ≦5% and the log-2 fold change was […].
HCT116 cells were seeded in triplicate at approximately 60% confluency. […] Total RNA concentration was determined using a Lambda 800 UV/VIS spectrometer (PerkinElmer, Waltham, Mass.) and processed for labeling hybridization, wash, and scan at University of Colorado-Denver Health Sciences Center. […] Differential expression was determined using the R software package limma to generate linear models and empirical Bayesian statistics. […]

For experiment [2], the system named is acetylated histone H3 in HCT116 cells. Description: Western blot of histone H3 hyperacetylation. It counts as cell-based, human. On the technique in general: In western blotting, separated proteins are transferred to a membrane and probed.

On to `O=C(CCCCCCC(=O)Nc1ccccc1)NO` [SAHA, suberoylanilide hydroxamic acid], for which the figures for the “# of Genes 2 Fold-Change in comparison to DMSO control” value in experiment [1] (6 hr) and in experiment [1] (24 hr) were 338 and 34, respectively. The “Inhibition of H3 deacetylation over time (FIG. 8A)” value in experiment [2] (10 nM largazole or 200 nM SAHA, anti-acetyl-H3 immunoblot) is given as “inhibit H3 deacetylation in a time-dependent manner”. Moreover, the “Deacetylase inhibition, dose response of H3 acetylation (FIG. 8B)” value in experiment [2] (8 hours, concentrations ranging from 1/μM to 100 nM) was “dose-dependent fashion”.
